Measurements published in patent US20200016266A1.
These are yes or no findings as the source states them, for the method shown. Some binding calls cover weakened binding; strength is not graded here.

By UniProt entry, the sequences of proteins in these tests, tags left out. Where a name states a change or a piece, a line headed by the entry shows the natural chain unless it says otherwise. Chains listed by the source or under a name are the forms on record and can include a tag or linker.
Ig2 (P35968, form named): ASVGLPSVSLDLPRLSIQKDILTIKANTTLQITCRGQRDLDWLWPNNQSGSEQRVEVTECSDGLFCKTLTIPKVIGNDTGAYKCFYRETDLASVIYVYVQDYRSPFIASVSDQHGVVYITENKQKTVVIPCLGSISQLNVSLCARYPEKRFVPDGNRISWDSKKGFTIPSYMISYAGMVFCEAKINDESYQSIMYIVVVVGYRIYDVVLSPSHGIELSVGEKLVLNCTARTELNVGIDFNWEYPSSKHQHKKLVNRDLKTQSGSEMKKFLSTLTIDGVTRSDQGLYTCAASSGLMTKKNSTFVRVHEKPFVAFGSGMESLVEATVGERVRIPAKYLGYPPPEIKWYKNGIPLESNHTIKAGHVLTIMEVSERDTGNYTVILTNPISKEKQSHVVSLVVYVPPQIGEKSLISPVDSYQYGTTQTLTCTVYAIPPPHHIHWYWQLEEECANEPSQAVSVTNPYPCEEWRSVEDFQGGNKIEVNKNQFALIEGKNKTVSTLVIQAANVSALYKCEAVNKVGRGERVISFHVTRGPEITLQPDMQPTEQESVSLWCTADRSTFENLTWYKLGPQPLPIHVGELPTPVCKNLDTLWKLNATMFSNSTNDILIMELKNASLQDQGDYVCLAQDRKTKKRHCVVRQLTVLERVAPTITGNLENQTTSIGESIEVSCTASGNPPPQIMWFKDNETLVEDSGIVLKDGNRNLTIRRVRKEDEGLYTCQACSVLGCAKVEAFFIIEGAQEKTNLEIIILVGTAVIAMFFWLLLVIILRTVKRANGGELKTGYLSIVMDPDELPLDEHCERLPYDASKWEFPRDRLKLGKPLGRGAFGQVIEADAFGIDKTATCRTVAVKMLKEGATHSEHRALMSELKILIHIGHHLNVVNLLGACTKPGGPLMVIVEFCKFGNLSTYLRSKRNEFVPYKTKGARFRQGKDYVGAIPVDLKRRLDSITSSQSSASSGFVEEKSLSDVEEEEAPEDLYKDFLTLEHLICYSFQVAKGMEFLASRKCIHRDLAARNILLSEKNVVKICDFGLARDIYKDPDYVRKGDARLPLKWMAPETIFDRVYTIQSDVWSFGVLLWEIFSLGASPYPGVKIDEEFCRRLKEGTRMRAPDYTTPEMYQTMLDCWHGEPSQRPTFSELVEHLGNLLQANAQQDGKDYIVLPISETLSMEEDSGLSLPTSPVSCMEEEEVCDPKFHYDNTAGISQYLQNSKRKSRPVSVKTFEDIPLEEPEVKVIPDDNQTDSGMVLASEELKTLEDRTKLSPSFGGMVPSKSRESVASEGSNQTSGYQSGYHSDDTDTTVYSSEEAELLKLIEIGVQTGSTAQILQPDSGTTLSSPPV
Ig1 (P35968, form named): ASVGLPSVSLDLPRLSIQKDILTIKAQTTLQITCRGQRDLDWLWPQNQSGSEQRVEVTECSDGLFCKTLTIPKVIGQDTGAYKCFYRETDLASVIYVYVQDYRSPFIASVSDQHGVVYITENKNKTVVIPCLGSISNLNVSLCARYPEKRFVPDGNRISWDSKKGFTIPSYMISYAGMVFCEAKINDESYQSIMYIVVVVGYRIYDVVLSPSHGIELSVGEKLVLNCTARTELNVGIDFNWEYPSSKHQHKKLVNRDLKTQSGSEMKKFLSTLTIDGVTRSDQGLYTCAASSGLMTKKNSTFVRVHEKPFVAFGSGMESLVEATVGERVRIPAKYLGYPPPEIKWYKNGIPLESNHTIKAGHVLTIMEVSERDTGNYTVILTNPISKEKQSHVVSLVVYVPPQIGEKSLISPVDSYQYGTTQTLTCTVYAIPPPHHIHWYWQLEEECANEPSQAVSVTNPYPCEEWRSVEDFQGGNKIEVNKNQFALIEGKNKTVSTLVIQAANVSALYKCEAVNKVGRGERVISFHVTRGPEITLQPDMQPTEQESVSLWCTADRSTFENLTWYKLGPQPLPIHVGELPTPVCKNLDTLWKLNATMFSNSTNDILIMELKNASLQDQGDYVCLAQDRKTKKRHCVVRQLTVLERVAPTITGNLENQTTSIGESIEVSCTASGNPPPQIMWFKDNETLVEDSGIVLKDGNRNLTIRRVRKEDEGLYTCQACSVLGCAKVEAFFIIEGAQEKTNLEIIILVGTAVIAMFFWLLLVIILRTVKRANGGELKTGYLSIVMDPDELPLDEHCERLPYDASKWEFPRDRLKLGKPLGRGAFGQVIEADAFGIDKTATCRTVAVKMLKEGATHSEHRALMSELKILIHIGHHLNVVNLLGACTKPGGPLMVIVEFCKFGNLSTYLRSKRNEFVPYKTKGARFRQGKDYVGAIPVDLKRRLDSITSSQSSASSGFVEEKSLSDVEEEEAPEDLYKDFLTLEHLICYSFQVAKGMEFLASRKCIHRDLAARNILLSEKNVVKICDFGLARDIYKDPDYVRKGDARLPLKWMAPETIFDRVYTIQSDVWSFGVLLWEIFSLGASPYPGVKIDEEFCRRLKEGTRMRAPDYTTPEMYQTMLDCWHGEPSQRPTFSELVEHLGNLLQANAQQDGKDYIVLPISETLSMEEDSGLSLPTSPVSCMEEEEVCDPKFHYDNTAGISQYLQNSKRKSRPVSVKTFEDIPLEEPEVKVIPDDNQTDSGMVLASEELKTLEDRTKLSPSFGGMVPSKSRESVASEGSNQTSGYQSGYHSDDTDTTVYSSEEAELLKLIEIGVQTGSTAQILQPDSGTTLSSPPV
UniProt P09382: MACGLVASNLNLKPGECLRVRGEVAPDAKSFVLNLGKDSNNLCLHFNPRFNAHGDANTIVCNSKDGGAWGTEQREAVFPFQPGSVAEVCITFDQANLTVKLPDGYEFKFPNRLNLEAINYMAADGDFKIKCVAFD

Assays:
[1] = target: Ig2 (Homo sapiens) (UniProt P35968); assay: anti-HA bead immunoprecipitation of KDR-HA from HEK 293T lysates, incubation with Gal1 and Alexa Fluor 488 anti-Gal1 Ab, flow cytometry; % relative to KDR-HA WT
[2] = target: Ig1 (Homo sapiens) (UniProt P35968); assay: as above

binding [1]: binds | binding [2]: binds
Substance: Galectin-1 (human recombinant Gal1) (from UniProt P09382 2-135) (ligand)
